Screening data, single-dose tests

Sequences of proteins named here, by UniProt entry; tags and fusion partners are left off. Residues count along the entry.
UniProt Q8IDJ8, 1-583: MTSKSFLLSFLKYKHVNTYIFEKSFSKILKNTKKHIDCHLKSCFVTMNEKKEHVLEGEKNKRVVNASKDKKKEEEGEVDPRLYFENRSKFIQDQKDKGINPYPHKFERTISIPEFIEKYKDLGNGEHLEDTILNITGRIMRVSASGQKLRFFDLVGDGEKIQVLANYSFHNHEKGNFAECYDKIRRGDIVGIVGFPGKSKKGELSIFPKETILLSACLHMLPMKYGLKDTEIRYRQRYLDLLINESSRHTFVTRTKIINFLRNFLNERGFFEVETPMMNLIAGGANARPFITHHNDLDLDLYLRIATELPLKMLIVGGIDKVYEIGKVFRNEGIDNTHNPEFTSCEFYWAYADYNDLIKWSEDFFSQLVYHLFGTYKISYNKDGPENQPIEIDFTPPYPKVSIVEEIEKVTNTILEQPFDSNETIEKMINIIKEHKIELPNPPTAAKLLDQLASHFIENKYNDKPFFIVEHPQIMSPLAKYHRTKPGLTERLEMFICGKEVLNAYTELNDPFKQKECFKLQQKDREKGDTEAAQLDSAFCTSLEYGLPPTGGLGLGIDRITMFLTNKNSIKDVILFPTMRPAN
UniProt I6X8D2, whole entry: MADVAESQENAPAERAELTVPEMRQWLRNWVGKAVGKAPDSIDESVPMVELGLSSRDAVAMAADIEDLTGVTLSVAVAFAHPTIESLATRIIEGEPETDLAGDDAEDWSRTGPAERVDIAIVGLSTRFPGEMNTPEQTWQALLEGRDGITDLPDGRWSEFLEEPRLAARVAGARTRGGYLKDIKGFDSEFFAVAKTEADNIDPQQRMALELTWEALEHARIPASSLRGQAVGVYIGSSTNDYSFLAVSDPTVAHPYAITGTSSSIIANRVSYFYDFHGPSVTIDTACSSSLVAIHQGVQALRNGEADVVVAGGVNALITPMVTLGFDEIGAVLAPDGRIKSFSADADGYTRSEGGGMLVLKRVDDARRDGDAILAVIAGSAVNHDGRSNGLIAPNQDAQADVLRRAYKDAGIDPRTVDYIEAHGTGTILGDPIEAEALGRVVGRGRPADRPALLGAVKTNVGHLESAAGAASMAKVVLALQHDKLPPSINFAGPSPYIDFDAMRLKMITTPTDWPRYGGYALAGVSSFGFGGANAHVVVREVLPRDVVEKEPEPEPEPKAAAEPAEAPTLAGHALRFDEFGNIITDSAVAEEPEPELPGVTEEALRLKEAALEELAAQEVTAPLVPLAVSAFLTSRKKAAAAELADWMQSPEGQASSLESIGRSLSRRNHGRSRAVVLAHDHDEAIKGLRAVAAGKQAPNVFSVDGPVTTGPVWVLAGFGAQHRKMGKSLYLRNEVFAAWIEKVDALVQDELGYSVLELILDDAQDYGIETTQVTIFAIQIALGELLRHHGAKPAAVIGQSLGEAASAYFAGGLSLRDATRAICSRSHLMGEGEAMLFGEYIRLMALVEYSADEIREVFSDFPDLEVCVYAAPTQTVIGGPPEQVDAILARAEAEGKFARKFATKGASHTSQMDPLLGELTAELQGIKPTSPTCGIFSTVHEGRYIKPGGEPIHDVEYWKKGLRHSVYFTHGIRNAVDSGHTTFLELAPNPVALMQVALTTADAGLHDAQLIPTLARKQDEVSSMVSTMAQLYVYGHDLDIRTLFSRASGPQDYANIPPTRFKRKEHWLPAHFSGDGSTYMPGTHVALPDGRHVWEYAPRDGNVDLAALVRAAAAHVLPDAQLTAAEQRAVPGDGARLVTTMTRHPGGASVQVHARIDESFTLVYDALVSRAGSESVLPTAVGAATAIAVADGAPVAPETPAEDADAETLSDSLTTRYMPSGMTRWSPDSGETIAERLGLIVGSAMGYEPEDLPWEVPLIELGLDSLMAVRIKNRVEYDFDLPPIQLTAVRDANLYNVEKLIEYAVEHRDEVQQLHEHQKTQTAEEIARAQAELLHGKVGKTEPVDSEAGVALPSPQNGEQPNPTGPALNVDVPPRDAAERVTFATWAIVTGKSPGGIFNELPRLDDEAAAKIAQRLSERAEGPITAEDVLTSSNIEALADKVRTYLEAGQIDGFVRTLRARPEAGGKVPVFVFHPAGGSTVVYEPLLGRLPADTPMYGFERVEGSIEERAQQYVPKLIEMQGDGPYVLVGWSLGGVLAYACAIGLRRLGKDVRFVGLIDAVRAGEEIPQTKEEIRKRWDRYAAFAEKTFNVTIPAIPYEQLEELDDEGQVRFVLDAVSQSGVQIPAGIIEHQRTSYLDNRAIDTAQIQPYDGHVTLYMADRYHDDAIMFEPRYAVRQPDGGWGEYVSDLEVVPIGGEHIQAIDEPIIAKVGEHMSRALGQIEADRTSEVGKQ
UniProt P9WNZ1, whole entry: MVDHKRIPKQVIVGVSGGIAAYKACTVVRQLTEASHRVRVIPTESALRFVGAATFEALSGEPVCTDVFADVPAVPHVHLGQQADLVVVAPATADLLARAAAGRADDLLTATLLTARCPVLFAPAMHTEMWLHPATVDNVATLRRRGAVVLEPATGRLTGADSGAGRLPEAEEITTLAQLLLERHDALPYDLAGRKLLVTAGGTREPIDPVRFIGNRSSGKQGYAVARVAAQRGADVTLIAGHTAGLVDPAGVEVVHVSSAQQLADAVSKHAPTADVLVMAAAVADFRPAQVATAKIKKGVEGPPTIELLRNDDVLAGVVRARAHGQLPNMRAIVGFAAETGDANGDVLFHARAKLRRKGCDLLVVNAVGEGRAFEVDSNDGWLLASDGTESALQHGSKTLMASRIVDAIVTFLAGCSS
UniProt Q4DA54, 1-478: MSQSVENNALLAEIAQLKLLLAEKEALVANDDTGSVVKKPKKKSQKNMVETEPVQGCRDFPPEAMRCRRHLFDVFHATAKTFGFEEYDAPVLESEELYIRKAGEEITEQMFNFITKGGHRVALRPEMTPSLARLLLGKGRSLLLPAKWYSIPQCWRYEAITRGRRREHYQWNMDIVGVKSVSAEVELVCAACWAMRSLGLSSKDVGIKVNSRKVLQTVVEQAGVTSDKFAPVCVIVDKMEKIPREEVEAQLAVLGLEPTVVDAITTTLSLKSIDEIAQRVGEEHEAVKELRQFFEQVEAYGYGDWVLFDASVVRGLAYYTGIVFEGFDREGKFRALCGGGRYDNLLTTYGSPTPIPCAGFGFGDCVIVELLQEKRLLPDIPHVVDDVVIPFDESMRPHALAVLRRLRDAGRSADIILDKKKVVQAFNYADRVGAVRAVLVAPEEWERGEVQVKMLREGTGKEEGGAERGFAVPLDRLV
UniProt P9WFT3, whole entry: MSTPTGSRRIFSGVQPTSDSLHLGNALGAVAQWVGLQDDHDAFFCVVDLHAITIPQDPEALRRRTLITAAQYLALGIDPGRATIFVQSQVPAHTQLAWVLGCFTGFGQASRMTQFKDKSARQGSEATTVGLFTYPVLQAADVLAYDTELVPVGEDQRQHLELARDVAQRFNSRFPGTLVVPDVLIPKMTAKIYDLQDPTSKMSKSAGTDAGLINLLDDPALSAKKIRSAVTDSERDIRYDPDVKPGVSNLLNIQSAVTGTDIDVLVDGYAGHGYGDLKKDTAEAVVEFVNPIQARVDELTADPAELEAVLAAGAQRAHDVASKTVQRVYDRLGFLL
UniProt P9WPC5, whole entry: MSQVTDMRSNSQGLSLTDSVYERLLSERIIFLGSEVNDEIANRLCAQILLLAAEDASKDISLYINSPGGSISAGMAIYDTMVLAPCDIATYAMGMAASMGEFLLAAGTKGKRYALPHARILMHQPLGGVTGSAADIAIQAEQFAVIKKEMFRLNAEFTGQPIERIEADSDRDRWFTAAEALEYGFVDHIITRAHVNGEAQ
UniProt P9WPC3, whole entry partner: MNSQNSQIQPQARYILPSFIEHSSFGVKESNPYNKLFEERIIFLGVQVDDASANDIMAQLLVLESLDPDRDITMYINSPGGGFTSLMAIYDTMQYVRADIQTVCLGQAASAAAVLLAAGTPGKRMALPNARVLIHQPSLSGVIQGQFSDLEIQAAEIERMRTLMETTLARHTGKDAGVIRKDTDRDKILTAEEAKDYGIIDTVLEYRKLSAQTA

Results are given as percent effect.
The controls that fix the scale are not given in the record; negative values are as filed.
Compounds were drawn at random from those tested, without regard to their results.

PfKRS1: 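Enzyme assay of the cytosolic lysyl-tRNA synthetase in 384-well plates, read by luminescence. Target: Lysine-tRNA ligase, Plasmodium falciparum 3D7 (UniProt Q8IDJ8). Concentration: 30 µM. Higher reads as stronger inhibition, judged from the few compounds that gave an IC50. About 69,000 compounds were tested under these conditions; 0.071% (about 49) showed 50% or more at least once.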
Pks13 thioesterase: 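Enzyme assay of the thioesterase domain of polyketide synthase 13; the read-out is not stated. Target: Polyketide synthase Pks13, Mycobacterium tuberculosis (UniProt I6X8D2). Tested at 30 µM. The record gives no direction; the compounds picked for IC50 retests had high values, so higher reads as stronger inhibition. Of about 67,000 compounds tested this way, about 300 (0.46%) reached 50% or more in at least one test.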
CoaBC: 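Enzyme assay of CoaBC with a phosphate dye (Biomol Green) read at 650 nm. Target: Coenzyme A biosynthesis protein CoaBC, Mycobacterium tuberculosis (UniProt P9WNZ1). Concentration: 30 µM. Higher reads as stronger inhibition, judged from the few compounds that gave an IC50. Most strong results did not repeat in a second test. Of about 67,000 compounds tested this way, about 40 (0.06%) reached 50% or more in at least one test.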
TcHisRS: 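Histidine-tRNA ligase, Trypanosoma cruzi CL Brener (UniProt Q4DA54). Enzyme assay of histidyl-tRNA synthetase; the read-out is not stated. Tested at 30 µM. The record gives no direction; compounds that gave an IC50 in retests scored well above the rest, so higher reads as stronger inhibition. About 69,000 compounds were tested under these conditions; 0.045% (about 31) showed 50% or more at least once.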
MtTrpRS: 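Tryptophan-tRNA ligase, Mycobacterium tuberculosis (UniProt P9WFT3). Enzyme assay of tryptophanyl-tRNA synthetase; the read-out is not stated. Concentration: 10 µM. Direction is not recorded; retested compounds ran higher, which suggests that high means inhibition. Of about 65,000 compounds tested this way, about 64 (0.098%) reached 50% or more in at least one test.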
ClpP1P2: 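ClpP1P2, Mycobacterium tuberculosis (UniProt P9WPC5 and UniProt P9WPC3). Protease assay of ClpP1P2, read by the AMC dye that it sets free. Compounds at 50 µM. Direction is inferred from only a few compounds that gave an IC50; most scored high, so higher reads as stronger inhibition. Most other retested compounds had strongly negative values. Size under these conditions: about 69,000 compounds, about 10 of them at 50% or above in at least one test.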

Compound: Cc1nsc(N2CCCN(c3nc(C4CC4)ns3)CC2)n1
PfKRS1: 3.234
Pks13 thioesterase: -20.12
CoaBC: 7.889
TcHisRS: 1.653
MtTrpRS: 0.4989
ClpP1P2: -8.067

Compound: CCCn1nc(C)c(C(=O)N[C@@H]2CC[C@@H](N3CCCC3)[C@@H]2O)c1C
PfKRS1: -0.9959
Pks13 thioesterase: 7.402
CoaBC: -2.365
TcHisRS: 4.545
MtTrpRS: -3.041
ClpP1P2: -2.247

Compound: O=C(Cn1cncn1)NCC1(O)CCCc2ccccc21 (stereo not shown)
PfKRS1: 3.305
Pks13 thioesterase: -21.9
CoaBC: 0.7444
TcHisRS: 12.14
MtTrpRS: -2.221
ClpP1P2: 5.905

Compound: CC(=O)NCCc1nc(C(C)C)nn1-c1ccncc1C
PfKRS1: -0.9939
Pks13 thioesterase: -40.16
TcHisRS: 5.263
MtTrpRS: 5.16
ClpP1P2: -2.885

Compound: CC(=O)NCc1ccc(C(=O)N2CCCc3c(F)ccc(C)c32)cc1
PfKRS1: 4.109
Pks13 thioesterase: 7.215
CoaBC: -2.58
TcHisRS: 11.9
MtTrpRS: 0.9031
ClpP1P2: -8.566

Compound: COCCN(c1cc(C)nc2nc(C(F)(F)F)nn12)C1CCCC1
PfKRS1: 3.197
Pks13 thioesterase: -2.414
CoaBC: -3.297
TcHisRS: -2.062
MtTrpRS: 3.494
ClpP1P2: -3.783

Compound: O=C(c1cc(-c2ccco2)cs1)N1CCOCC1
PfKRS1: 4.036
Pks13 thioesterase: 2.042
CoaBC: -1.392
TcHisRS: 8.696
MtTrpRS: -2.169
ClpP1P2: -6.567

Compound: Cc1ccc(C(C)N(C)Cc2nc3c(cnn3C)c(=O)[nH]2)c(C)c1 (stereo not shown)
PfKRS1: 1.471
Pks13 thioesterase: -23.07
CoaBC: 8.095
TcHisRS: 4.956
MtTrpRS: 4.354
ClpP1P2: -24.2

Compound: Cc1cc(C)c(CNC(=O)N(C)Cc2sccc2C)c(=O)[nH]1
PfKRS1: 9.767
Pks13 thioesterase: -4.042
CoaBC: 10.52
TcHisRS: 4.545
MtTrpRS: -0.09747
ClpP1P2: 6.648

Compound: Cc1nn(C)c(C)c1-c1ccc(=O)n(C(C)C(=O)NC2CC2)n1 (stereo not shown)
PfKRS1: -1.264
Pks13 thioesterase: -16.73
CoaBC: -13.56
TcHisRS: -1.13
MtTrpRS: 15.34
ClpP1P2: -10.33

Compound: CN(C)c1cncc(C2CCN(CC3(O)CCCCC3)CC2)n1
PfKRS1: 5.709
Pks13 thioesterase: -15.19
CoaBC: -1.716
TcHisRS: 4.255
ClpP1P2: 14.14

Compound: c1cc(-c2cscn2)cc(N2CCC(NCCc3cccs3)CC2)c1
PfKRS1: 4.854
Pks13 thioesterase: -59.48
CoaBC: 6.21
TcHisRS: -6.466
MtTrpRS: -0.2987
ClpP1P2: -7.498

Compound: O=C(c1nc2c(o1)CN(CC1CCC1)C2)N1CCCC1
PfKRS1: 3.541
Pks13 thioesterase: 2.672
TcHisRS: 3.681
MtTrpRS: 14.24
ClpP1P2: 3.69

Compound: Cc1cccc(Cn2c(=O)[nH]c3csnc3c2=O)c1
PfKRS1: 6.89
Pks13 thioesterase: -12.01
CoaBC: 1.179
TcHisRS: 1.031
MtTrpRS: -1.54
ClpP1P2: 6.958

Compound: CSC(CNS(N)(=O)=O)c1cccc(Cl)c1 (stereo not shown)
PfKRS1: 0.8076
Pks13 thioesterase: 2.24
CoaBC: -1.375
TcHisRS: 8.621
MtTrpRS: 2.593
ClpP1P2: 6.241

Compound: CSc1nccc(N2CCC3(CCCN(CC4CC4)C3)C2)n1 (stereo not shown)
PfKRS1: 4.326
Pks13 thioesterase: -0.9951
CoaBC: 1.384
TcHisRS: 3.571
MtTrpRS: -0.4082
ClpP1P2: -10.85

Compound: Cc1nn(C)cc1-c1cc(C(=O)N2CCc3ncc(Cl)cc3C2)on1
PfKRS1: 0.1707
Pks13 thioesterase: 8.177
CoaBC: -22.08
TcHisRS: 6.818
MtTrpRS: -6.082
ClpP1P2: -15.92

Compound: COc1ccc(-c2nnsc2C(=O)N2CCN(C(C)=O)CC2)cc1
PfKRS1: 1.112
Pks13 thioesterase: 2.109
CoaBC: -8.491
TcHisRS: 2.062
MtTrpRS: -1.386
ClpP1P2: -7.506

Compound: CC(c1nccs1)n1cc(-c2cc(CN3CCCCC3)cs2)nn1 (stereo not shown)
PfKRS1: 7.494
Pks13 thioesterase: -23.29
CoaBC: 8.264
TcHisRS: 15.61
MtTrpRS: -7.692
ClpP1P2: 12.77

Some entries from above, unchanged:

* c1cc(-c2cscn2)cc(N2CCC(NCCc3cccs3)CC2)c1 : PfKRS1: 4.854%; Pks13 thioesterase: -59.48%; CoaBC: 6.21%; TcHisRS: -6.466%; MtTrpRS: -0.2987%; ClpP1P2: -7.498%
* CC(=O)NCc1ccc(C(=O)N2CCCc3c(F)ccc(C)c32)cc1 : PfKRS1: 4.109%; Pks13 thioesterase: 7.215%; CoaBC: -2.58%; TcHisRS: 11.9%; MtTrpRS: 0.9031%; ClpP1P2: -8.566%

Source: ChEMBL document CHEMBL3988442, “University of Dundee, Small-Polar-MMV Screening Library” (2021).